# Assay results published in PubChem BioAssay AID504834 (National Center for Advancing Translational Sciences (NCATS), 2011).
# Out of some 320,000 compounds screened, about 22,000 (6.9%) were called active. The inconclusive results got no clear call from the source; some entries with a clear call stand among them for comparison. Calls follow the shape of the dose curve; as a rule, active = well fitted inhibition curve with a large enough effect; inconclusive = small, poorly fitted or top-dose-only effect, or another doubt; inactive = no such curve, though single readings can be large or run the other way. A potency beside an inconclusive call is a rough fit, not a confirmed value.
# Experiment: Primary qHTS for delayed death inhibitors of the malarial parasite plastid, 96 hour incubation
# Details: P. falciparum luciferase reporter growth; series mostly up to 28.7 µM
# How it was run: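 P. falciparum expressing integrated firefly luciferase, in erythrocytes at 2% hematocrit, 0.05% parasitemia, incubated with compounds 96 h at 37 C, 5% CO2. Growth inhibition read as loss of luminescence; two-generation exposure targets delayed-death apicoplast inhibitors.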
# % is scaled to controls: 0 for no effect and ±100 for the full control effect; potency is read from the fitted curve at half-maximal effect.
SMILES,Potency,"activity change, negative = inhibition"
N#CCNC1CC(=O)N(c2ccccc2)C1=O (stereo unspecified),inactive,–
CC(C)CCN1CCN(C2CCN(c3ccc4c(c3)OCO4)CC2)CC1CCO (stereo unspecified),"inconclusive: 2.94 µM [inhibitor, partial curve, poor fit]",–
COC(=O)c1ccc(-n2c(C)cc(C(=O)CSc3ccc(NC(C)=O)cc3)c2C)cc1,"inconclusive: 14.7 µM [inhibitor, partial curve, poor fit]",–
CCSc1nc(N)c2c3c(sc2n1)CN(C)CC3,"inconclusive: 10.4 µM [inhibitor, partial curve]",–
Cc1ccc(C(=O)COC(=O)CCc2nc3ccccc3[nH]c2=O)cc1C,active: 2.62 µM,–
CC1(C)Cc2c(sc(NC(=O)C(=O)N3CCCCC3)c2C(N)=O)CO1,inactive,–
CCC(C)C(=O)Nc1cc(OC)c(OC)cc1C(=O)O (stereo unspecified),"inconclusive: 10.4 µM [inhibitor, partial curve, poor fit]",–
C/C(=N\NC(=O)c1cc2c(s1)CCC(C)C2)c1cccnc1 (stereo unspecified),"inconclusive: 11.7 µM [inhibitor, single point]",–
COc1ccccc1C(=O)Nc1ccnn1C1CCN(C(C)CSC)CC1 (stereo unspecified),"inconclusive: 11.7 µM [inhibitor, single point]",–
COc1ccc2c(c1)C=C(CN1CCN(C3CCCC3)C(CCO)C1)CO2 (stereo unspecified),inactive,–
CCCCn1c(N)c(N(CC(C)C)C(=O)COC(=O)C2(c3ccccc3)CC2)c(=O)[nH]c1=O,"inconclusive: 16.5 µM [inhibitor, single point]",–
CCOc1ccccc1NC(=O)Cn1nc(-c2ccco2)ccc1=O,inactive,–
CC(=O)Oc1cc2c(cc1Cl)C(c1cccs1)CC1(CC(C)(C)NC(=S)N1)O2 (stereo unspecified),"inconclusive: 18.5 µM [inhibitor, single point]",–
Cc1c(NC(=O)C2CCCN(S(=O)(=O)c3cnc[nH]3)C2)c(=O)n(-c2ccccc2)n1C (stereo unspecified),inactive,–
CCn1cc(Cl)c(C(=O)Nc2ccc3c(c2)OCCO3)n1,inactive,–
O=C(CNC(=O)c1cccc(Br)c1)N/N=C/c1ccc[nH]1,–,inactive: 40.7% [at 1.15 µM]
CC(c1nccs1)N(C)C(=O)CCc1nnc(-c2ccc(-c3ccccc3)cc2)o1 (stereo unspecified),inactive,–
Cc1ccc(-c2nnc(-c3cc(C)on3)o2)cc1,inactive,–
CC(C)N(C)S(=O)(=O)c1ccc(NC(=O)CSC(=S)N2CCCC2)cc1,"inconclusive: 11.7 µM [inhibitor, single point]",–
NC(N)=Nc1cc2ccccc2c2ccccc12,"inconclusive: 16.5 µM [inhibitor, single point]",–
CCn1cc(CCC(=O)NCc2cccc(OC)c2OC)c2ccccc21,inactive,–
Cc1ccc(NC(=O)CN(C)S(=O)(=O)c2cccc3cccnc23)c(C)c1,"inconclusive: 0.586 µM [inhibitor, full curve, poor fit]",–
Cc1[nH]nc(Nc2ccccc2)c1[N+](=O)[O-],"inconclusive: 16.5 µM [inhibitor, partial curve, poor fit]",–
Cc1ccnc(NC(=O)CCCOc2ccccc2)c1,"inconclusive: 0.415 µM [inhibitor, full curve, poor fit]",–

SMILES,Potency,"activity change, negative = inhibition"
CCCn1nc(C(=O)Nc2nc3ccccc3[nH]2)c2ccccc2c1=O,"inconclusive: 11.7 µM [inhibitor, partial curve, poor fit]",–
Cc1cc(-c2ccccc2)c2c(=O)n(-c3ccccc3)[nH]c2n1,active: 0.0037 µM,–
CCOC(=O)c1c(N2CCN(c3ccccc3)CC2)cc(C)nc1C,inactive,–
COc1ccc(OC)c(NC(=O)Nc2cnccn2)c1,"inconclusive: 18.5 µM [inhibitor, single point]",–
CCCOc1ccc(C(=O)NC(=S)Nc2nc3ccc(C)cc3s2)cc1,inactive,–
COC(=O)Cc1c(O)ccn(CCc2c[nH]c3ccc(OC)cc23)c1=O,inactive,–
COc1ccccc1Oc1cn[nH]c1-c1ccc(OCC(=O)NN)cc1O,"inconclusive: 11.7 µM [inhibitor, single point]",–
CCOC(=O)SC1=N/C(=C\c2ccc(N(C)C)cc2)C(=O)S1,–,inactive: 10.9% [at 5.75 µM]
O=C(CCc1nnc(CCC2CCCCC2)o1)NCCc1ccccn1,inactive,–
COc1cccc(CN(CC(=O)NC2CCCCC2)C(=O)c2csnn2)c1,inactive,–
CSc1cccc(NS(=O)(=O)c2ccc3c(c2)oc(=O)n3C)c1,active: 11.7 µM,–
Cc1ccccc1NC(=S)NC(C)C(c1ccccc1)N1CCN(C)CC1 (stereo unspecified),"inconclusive: 0.0029 µM [inhibitor, full curve, poor fit]",–
C[C@]12CCC3c4ccc(OCC(=O)O)cc4CCC3C1CCC2=O (stereo partly specified),"inconclusive: 11.7 µM [inhibitor, single point]",–
CN(Cc1cccc2ccccc12)C(=O)c1cc(COc2c(F)cccc2F)on1,"inconclusive: 18.5 µM [inhibitor, single point]",–
Nc1nc(NC(=O)c2cccs2)nn1-c1ccccc1,inactive,–
COc1ccc(NC2CCCN(C(=O)CCCn3cncn3)C2)cc1 (stereo unspecified),"inconclusive: 18.5 µM [inhibitor, single point]",–
Cc1ccc2c(c1)CCCN2C(=O)c1cc(C)c(C)s1,"inconclusive: 14.7 µM [inhibitor, partial curve]",–
Cc1cc([N+](=O)[O-])cnc1NC(C)c1ccccc1 (stereo unspecified),inactive,–
Cc1ccc(-c2nnc3c4ccccc4c(C)nn23)cc1S(=O)(=O)N1CCN(CCO)CC1,"inconclusive: 18.5 µM [inhibitor, single point]",–
CCS(=O)(=O)n1nc(-c2ccc(Cl)cc2)nc1N,inactive,–
O=C(CN1CCCc2ccccc21)N/N=C/c1ccccc1O,"inconclusive: 10.4 µM [inhibitor, single point]",–
COc1ccc(S(=O)(=O)NC(C(C)C)C(C)C)cc1OC,inactive,–
CCCCN(C(=O)c1cccc(S(=O)(=O)N2CCN(Cc3ccccc3)CC2)c1)c1ccccc1,"inconclusive: 9.28 µM [inhibitor, partial curve, poor fit]",–
Cc1cccc(NC(=S)N2CCN(S(=O)(=O)c3ccc(F)cc3)CC2)c1,"inconclusive: 1.04 µM [inhibitor, partial curve, poor fit]",–

# Arranged by molar mass (rising): 20 of the compounds above
SMILES,Potency,"activity change, negative = inhibition"
Cc1cc([N+](=O)[O-])cnc1NC(C)c1ccccc1 (stereo unspecified),inactive,–
COc1ccc(OC)c(NC(=O)Nc2cnccn2)c1,"inconclusive: 18.5 µM [inhibitor, single point]",–
Nc1nc(NC(=O)c2cccs2)nn1-c1ccccc1,inactive,–
Cc1cc(-c2ccccc2)c2c(=O)n(-c3ccccc3)[nH]c2n1,active: 0.0037 µM,–
O=C(CN1CCCc2ccccc21)N/N=C/c1ccccc1O,"inconclusive: 10.4 µM [inhibitor, single point]",–
COc1ccc(S(=O)(=O)NC(C(C)C)C(C)C)cc1OC,inactive,–
C[C@]12CCC3c4ccc(OCC(=O)O)cc4CCC3C1CCC2=O (stereo partly specified),"inconclusive: 11.7 µM [inhibitor, single point]",–
CCOC(=O)c1c(N2CCN(c3ccccc3)CC2)cc(C)nc1C,inactive,–
COc1ccc(NC2CCCN(C(=O)CCCn3cncn3)C2)cc1 (stereo unspecified),"inconclusive: 18.5 µM [inhibitor, single point]",–
CCCn1nc(C(=O)Nc2nc3ccccc3[nH]2)c2ccccc2c1=O,"inconclusive: 11.7 µM [inhibitor, partial curve, poor fit]",–
CSc1cccc(NS(=O)(=O)c2ccc3c(c2)oc(=O)n3C)c1,active: 11.7 µM,–
O=C(CCc1nnc(CCC2CCCCC2)o1)NCCc1ccccn1,inactive,–
COc1ccccc1Oc1cn[nH]c1-c1ccc(OCC(=O)NN)cc1O,"inconclusive: 11.7 µM [inhibitor, single point]",–
Cc1ccccc1NC(=S)NC(C)C(c1ccccc1)N1CCN(C)CC1 (stereo unspecified),"inconclusive: 0.0029 µM [inhibitor, full curve, poor fit]",–
CCCOc1ccc(C(=O)NC(=S)Nc2nc3ccc(C)cc3s2)cc1,inactive,–
COc1cccc(CN(CC(=O)NC2CCCCC2)C(=O)c2csnn2)c1,inactive,–
Cc1cccc(NC(=S)N2CCN(S(=O)(=O)c3ccc(F)cc3)CC2)c1,"inconclusive: 1.04 µM [inhibitor, partial curve, poor fit]",–
CN(Cc1cccc2ccccc12)C(=O)c1cc(COc2c(F)cccc2F)on1,"inconclusive: 18.5 µM [inhibitor, single point]",–
Cc1ccc(-c2nnc3c4ccccc4c(C)nn23)cc1S(=O)(=O)N1CCN(CCO)CC1,"inconclusive: 18.5 µM [inhibitor, single point]",–
CCCCN(C(=O)c1cccc(S(=O)(=O)N2CCN(Cc3ccccc3)CC2)c1)c1ccccc1,"inconclusive: 9.28 µM [inhibitor, partial curve, poor fit]",–

# (continued)

SMILES,Potency,"activity change, negative = inhibition"
COc1ccc(C2/C(=C(\O)c3ccc4c(c3)OCCO4)C(=O)C(=O)N2c2nc(C)c(C(C)=O)s2)cc1 (stereo unspecified),"inconclusive: 16.5 µM [inhibitor, single point]",–
CS(=O)(=O)/C(C#N)=C/c1cccn1S(=O)(=O)c1ccccc1,"inconclusive: 1.31 µM [inhibitor, partial curve]",–
CCCCN(C(=O)CN1C(=O)C2CC=CCC2C1=O)c1c(N)n(CCC)c(=O)[nH]c1=O (stereo unspecified),"inconclusive: 16.5 µM [inhibitor, single point]",–
CC(=O)n1cc([C@@H]2C=C(C(=O)N3CCOCC3)O[C@H](OCc3ccc(CO)cc3)C2)c2ccccc21,"inconclusive: 11.7 µM [inhibitor, single point]",–
CCN1CCN(c2ccc(NC(=O)c3ccc(Cl)c(S(=O)(=O)N4CCCC4)c3)cc2)CC1,"inconclusive: 2.08 µM [inhibitor, full curve]",–
C=CCN1CN=C(NS(=O)(=O)c2ccc(NC(C)=O)cc2)NC1,"inconclusive: 0.928 µM [inhibitor, partial curve, poor fit]",–
COc1ccc(CN2CSC(=S)N(Cc3ccc(OC)cc3)C2)cc1,"inconclusive: 5.86 µM [inhibitor, partial curve, poor fit]",–
CCn1c(SCc2nc(-c3ccccc3)no2)nnc1-c1cccs1,inactive,–
CCC1(C)Cc2c(sc3c2c2ncnn2c2nnc(SCC(=O)NCc4ccco4)n32)CO1 (stereo unspecified),"inconclusive: 2.33 µM [inhibitor, full curve]",–
O=C(O)c1nnn(-c2cccc(C(F)(F)F)c2)c1-c1ccccc1,"inconclusive: 0.131 µM [inhibitor, partial curve, poor fit]",–
Cc1c(C=O)c2ccccc2n1CC(=O)NC(C)c1ccccc1 (stereo unspecified),"inconclusive: 0.0026 µM [inhibitor, full curve, poor fit]",–
COC(=O)C1=C(C)Nc2c(c(=O)n(C)c(=O)n2C)C1c1ccncc1 (stereo unspecified),"inconclusive: 9.28 µM [inhibitor, single point]",–
CN(C)S(=O)(=O)c1cc(NC(=O)CN2CCN(c3ccccc3F)CC2)ccc1Cl,"inconclusive: 10.4 µM [inhibitor, partial curve, poor fit]",–
O=C(NCCN1CCCCC1)c1ccco1,"inconclusive: 13.1 µM [inhibitor, partial curve]",–
CCOC(=O)C1=C(C)N(C)C(C)=C(C(=O)OCC)C1c1ccc(C(=O)OC)cc1,"inconclusive: 10.4 µM [inhibitor, single point]",–
COc1ccc(-c2noc(CN(C)S(=O)(=O)c3ccc(C)cc3)n2)cc1,"inconclusive: 2.33 µM [inhibitor, full curve]",–
CC1CCCc2sc3nc(N4CCN(CCO)CC4)n4ncnc4c3c21 (stereo unspecified),"inconclusive: 18.5 µM [inhibitor, single point]",–
CC(C)(C)C1c2[nH]c3ccccc3c2CCN1CCCn1cccn1 (stereo unspecified),active: 5.86 µM,–
C=CCN(CC(=O)O)S(=O)(=O)c1ccccc1C(F)(F)F,inactive,–
C=CCc1cccc(Cl)c1OCCCNC1CCCC1,"inconclusive: 18.5 µM [inhibitor, single point]",–
CC(C)(CO)NCC(O)COc1ccc2c(c1)CCC2 (stereo unspecified),inactive,–
Cc1ccc(OCCCC(=O)N(C)CC(=O)Nc2ccccc2Cl)cc1,inactive,–
COc1cc(OC)cc(C(=O)NNC(=O)CN2C(=O)NC3(CCCC3)C2=O)c1,inactive,–
